According to patent publication US9133437B2, “Cell proliferation-promoting peptide and use thereof” (TOAGOSEI CO. LTD., priority 2009, dated 2015):
Some results were stated once for a whole list of compounds, not compound by compound.

Tested on: Rat bone marrow stem cells (mesenchymal stem cells)
Experiment: Cell proliferation-promoting activity, WST-8 colorimetry (OD450)
Format: cell-based
Details: from optical densities of Table 2
Description: The cell proliferation-promoting peptides (Samples 1 to 8) obtained in Example 1 and the peptides composed of only a (A) part sequence (Samples 9 to 11) which had been prepared for comparison were evaluated, respectively, on the cell proliferation-promoting activity. Sample 12 was an experimental control where a commercial bFGF was used as the cell proliferation promoter. Sample 13 was an experimental control where no peptide was added (bFGF was not added, either). The evaluation assay is described in detail below. Each synthesized peptide sample was dissolved in PBS (phosphate buffered saline) to prepare a stock solution having a peptide concentration of 1 mM.
Rat bone marrow stem cells (mesenchymal stem cells) were used as the test cells. In particular, the test stem cells were subcultured in Dulbecco MEM (DMEM: a Gibco product) containing 10% fetal bovine serum (FBS: a Gibco product), 2 mM of L-glutamine, 50 unit/mL of penicillin, and 50 μg/mL of streptomycin. […]
During the course of this incubation assay, water-soluble tetrazolium salt (WST-8) was added to some wells as a staining reagent at the start of the incubation (day 0), when two days had passed from the start (day 2) and when four days had passed from the start (day 4). […] The level of cell proliferation was evaluated by colorimetry as optical density measured at 450 nm (OD450) based on reduction of the tetrazolium salt.

Sequence | cell proliferation-promoting ability (in words, compared with bFGF culture, Sample 12)
KKRTLRKNDRKKR LLGNSSPRTQSPQNC (KKRTLRKNDRKKRLLGNSSPRTQSPQNC) [Sample 3] | particularly significant cell proliferation-promoting activities
TLDGGDIINALCFS KKRTLRKNDRKKR (TLDGGDIINALCFSKKRTLRKNDRKKR) [Sample 2] | particularly significant cell proliferation-promoting activities
